# This is one part of the list.
# System: T1, CTL2-GFP (C. trachomatis L2/434/Bu, GFP-expressing)
# T1 construct: L2/434/Bu, GFP-expressing
# Parameters: species or system HeLa; Intracellular C. trachomatis growth in HeLa cells, bulk GFP fluorescence relative to DMSO
# Settings: bulk GFP, single well; 28.5 h, 10 µM; inhibitor
row,SMILES,% of control remaining [%]
1,O=S(=O)(c1ccc(C(F)(F)F)cc1)c1ccc2nccc(N3CCNCC3)c2c1 [CBK200016C],115.931
2,CCN(Cc1ccc(C#N)cc1F)C(=O)NC(C)c1cnn(C)c1C (stereo not drawn) [CBK305643],114.895
3,CNC(=O)c1cccc(NC(=O)c2cc(-c3ccc(O)cc3)cnc2N(C)C)c1 [CBK106397],116.066
4,O=C(N/N=C/c1cc([N+](=O)[O-])ccc1Cl)c1ccc(O)c(O)c1 [CBK261599],78.2392
5,CC(C)c1ccc2c(c1)C(N1CCN(C)CC1)Cc1cccnc1S2 (stereo not drawn) [CBK026244G],100
6,O=C(Nc1ccc2ncccc2c1)c1cnc(-c2cccc(C(F)(F)F)c2)c(-c2cccnc2)c1 [CBK037591],106.794
7,c1ccc([C@@H]2CN(Cc3ccncc3)C[C@H]2c2cc[nH]n2)cc1 [CBK285161],108.653
8,COc1ccccc1C(=O)N1CCC(Cc2cccc(-c3cccs3)c2)(C(N)=O)CC1 [CBK285742],92.5356
9,Nc1ncc(-c2ccco2)nc1-c1ccc(C=O)cc1 [CBK064095],127.047
10,Fc1ccc([C@@H]2CN(Cc3cccnc3)C[C@H]2c2cc[nH]n2)cc1 [CBK283054],110.482
11,O=C(c1cnoc1-c1ccc([N+](=O)[O-])cc1)N1CCCC1 [CBK153846],114.273
12,COc1ccc(-c2nc(NCc3ccccc3)n(C(=O)c3ccc([N+](=O)[O-])cc3)n2)cc1 [CBK268265],140.01
13,COc1ccc(-c2cnn(-c3cncnc3)n2)cc1 [CBK112763],108.832
14,Cc1ccccc1NC(=O)Cn1cnc2c(cnn2-c2ccccc2)c1=O [CBK287530],144.137
15,CCC(O)CNS(=O)(=O)c1ccc(C(C)C)cc1 (stereo not drawn) [CBK043543],105.142
16,CCOc1ccccc1NC(=O)NCCSCc1ccco1 [CBK057501],118.47
17,CCNS(=O)(=O)c1ccc2c(c1)N(Cc1nc(C)c(C)o1)CC2 [CBK305189],129.557
18,Cc1c(C(C)NCC(O)c2ccncc2)cnn1-c1ccc(C#N)cc1 (stereo not drawn) [CBK305403],115.465
19,Cc1cccc(CCN2CCC3(CC2)NCCc2c3[nH]c3ccc(Br)cc23)c1 [CBK039280],86.6361
20,COc1ccc(Oc2nccnc2N2CCN(Cc3ccc(Cl)c(Cl)c3)CC2)cc1OC [CBK083038T],86.9986
21,O=C(CCN1C(=O)c2ccc([N+](=O)[O-])cc2C1=O)Nc1ccccc1-c1ccccc1 [CBK265134],71.8646
22,CCC(C)(C)C(=O)Nc1ccc(Cl)nc1 [CBK091334],82.1971
23,CN(C)c1cccc(-c2cncc(Nc3ccc(Cl)cc3)n2)c1 [CBK065738],89.0182
24,Cc1nc2cc(NC(=O)Cc3c(C)nc4ccccc4c3C)ccc2o1 [CBK297083],131.653
25,COc1ccc(C2CC(=O)C(=CNCCN3CCN(C(=O)c4ccccc4)CC3)C(=O)C2)cc1 (stereo not drawn) [CBK264762],100
26,Cn1c(=O)n(C)c2cc(NC(=O)CN(c3ccccc3)S(C)(=O)=O)ccc21 [CBK270094],111.338

row,SMILES,% of control remaining [%]
1,CC(C)c1cc(C(=O)NC(C)(C)CN2CCCCC2C)n(C)n1 (stereo not drawn) [CBK282644],109.692
2,CCOc1cc(CNCCO)c(Cl)cc1OC [CBK269309C],166.356
3,Nn1c(SCc2cc(=O)[nH]c3ccccc23)nnc1C(O)c1ccccc1 (stereo not drawn) [CBK268405],118.926
4,COc1ccc2[nH]c(=O)c(CN(CCN(C)C)C(=S)Nc3ccc(F)cc3)cc2c1 [CBK135011],82.7755
5,CC(C)Oc1cccc(C(=O)Nc2ccc(N3CCN(C(=O)C(C)(C)C)CC3)cc2)c1 [CBK270280],109.286
6,O=C1c2ccccc2C(=O)N1CCc1nn2c(-c3cccnc3)nnc2s1 [CBK269793],132.872
7,CC1CCCCC1NC(=O)Cn1ncn2c(cc3ccsc32)c1=O (stereo not drawn) [CBK284196],78.4234
8,O=C(NCCc1c[nH]c2ccc(Cl)cc12)c1ccc(Cl)cc1Cl [CBK159750],5.5258
9,Cc1nc(C)c(C(=O)N2CCN(Cc3ccccc3)CC2)s1 [CBK200177],98.0911
10,CN1CCC(N2CCN(C(=O)c3ccc(-c4ccc(OC(F)(F)F)cc4)nc3)CC2)CC1 [CBK156206],106.77
11,CCOc1ccc(Oc2ccc(C(F)(F)F)cc2NC(=O)CCCC(=O)O)cc1 [CBK296993],133.306
12,CC(=O)N[C@H]1CC[C@]2(C)CCC([C@H](C)C(=O)NC3CC3)[C@H](O)[C@H]2[C@@H]1C (stereo partly drawn) [CBK289437],102.428
13,COc1ccccc1-n1nc(CC(C)C)nc1C(C)NS(C)(=O)=O (stereo not drawn) [CBK306660],121.436
14,Cc1ccc(NC(=O)c2nc(-c3ccc(C(=O)N4CCOCC4)cc3)cnc2N)c(O)c1 [CBK149152],76.2561
15,Nc1c(C(=O)c2ccc3c(c2)OCO3)sc2nc(-c3cccnc3)ccc12 [CBK270186],134.248
16,COc1ccc(-c2cnc(N3CCOCC3)c3nccn23)cc1 [CBK091285],145.363
17,O=C(O)CCC(=O)NCC(=O)c1ccc(F)cc1 [CBK057384],154.13
18,CSc1nsc(SCC(=O)Nc2ccc3c(c2)OCO3)n1 [CBK270044],117.323
19,COc1ccc(OC)c(-c2nc(Nc3ccccc3Cl)sc2CC(=O)O)c1 [CBK264190],114.347
20,CC(=O)c1cccc(NC(=O)N(CCO)C2CCCc3ccccc32)c1 (stereo not drawn) [CBK305195],126.18
21,CNC(=O)c1cc(NC(=O)NCC2CC(=O)N(CCOC)C2)ccc1F (stereo not drawn) [CBK304403],94.5299
22,N#C/C(=C/c1ccccc1OCc1cccc([N+](=O)[O-])c1)c1ccc(C(=O)O)cc1 [CBK268748],129.727
23,O=C(NCc1ccc(Cl)cc1)c1c(O)c2cc(NS(=O)(=O)c3ccccc3)ccc2[nH]c1=O [CBK017589],122.9
24,CCN1CCN(C(=O)CN(Cc2ccccc2)S(C)(=O)=O)CC1 [CBK266735],89.4102
25,Cc1nc2ccc(C(=O)NC(C)c3ccccn3)cc2s1 (stereo not drawn) [CBK281890],93.6531
26,O=C(NCc1ccccc1OC1CCNC1)C1CCCO1 (stereo not drawn) [CBK024503T],128.793

# Not a retest: entries from further up.
row,SMILES,% of control remaining [%]
20,CC(=O)c1cccc(NC(=O)N(CCO)C2CCCc3ccccc32)c1 (stereo not drawn) [CBK305195],126.18
21,CNC(=O)c1cc(NC(=O)NCC2CC(=O)N(CCOC)C2)ccc1F (stereo not drawn) [CBK304403],94.5299

# (further entries)

row,SMILES,% of control remaining [%]
1,Cc1cc(C(=O)NCCn2ccnc2C)nc2ccccc12 [CBK281894],138.038
2,O=C(Nc1sc2c(c1C(=O)NCc1cccnc1)CCCC2)c1ccc(Cl)cc1 [CBK265498],100
3,CCOC(=O)CNS(=O)(=O)c1ccc(Cl)c(Cl)c1Cl [CBK034428],84.4596
4,COc1ccc(-c2oc(C(=O)N(C)C)c(C(=O)O)c2-c2ccc(OC)cc2)cc1 [CBK001958],114.838
5,Cc1cc(O)cc(O)c1/C=N\NC(=O)C1COc2cc3ccccc3cc2O1 (stereo not drawn) [CBK262809],120.745
6,O=C(NC1CCCc2c1cnn2-c1ccc(F)cc1)c1ccncc1 (stereo not drawn) [CBK283929],111.678
7,Cc1cc(Cl)c(S(=O)(=O)NCc2ccccc2)cc1OCC(N)=O [CBK266588],180.569
8,CCC(Cc1c[nH]c2ccccc12)NC(=N)N (stereo not drawn) [CBK010430],100.248
9,Cc1ccc(C2(O)CCN(Cc3c(C)nc4cc(C)ccn34)CC2)cc1 [CBK282733],130.805
10,CCN1CCCc2cc(-c3cncn3CCCn3ccnc3C)ccc21 [CBK281810],107.551
11,Cc1csc2c(N3CCCC3CC(O)c3cnn(C)c3)ncnc12 (stereo not drawn) [CBK304477],115.737
12,CCCCN1CCC(CNc2nccc3sc(S(=O)(=O)NC4CCC4)cc23)CC1 [CBK038275C],155.548
13,O=C(O)CCCC(=O)Nc1ccc([N+](=O)[O-])cc1O [CBK267384],143.043
14,Cc1ccccc1S(=O)(=O)N(c1ccc(C(C)(C)C)cc1)C1CCNCC1 [CBK165074T],126.848
15,COc1ccccc1C(=O)N1CCN(Cc2cc(OC)c(O)c(OC)c2)CC1 [CBK263484],121.624
16,Nc1nc(N)c2cccc(F)c2n1 [CBK025945],151.728
17,CC1(C)C(=O)N2CCN=C2c2ccccc21 [CBK009903],135.81
18,CC(SCCc1ccccn1)C(=O)O (stereo not drawn) [CBK026572],76.3682
19,c1cnc(OC2CCN(CC3CCCCC3)CC2)c(OC2CCCCC2)n1 [CBK082879T],126.929
20,O=C(NCc1ccccc1)C(Cc1ccc([N+](=O)[O-])cc1)N1C(=O)c2ccccc2C1=O (stereo not drawn) [CBK261279],87.3742
21,Cc1ccc(C(=O)C(NC(=O)c2cccs2)Nc2ccc(S(N)(=O)=O)cc2)cc1 (stereo not drawn) [CBK264897],120.517
22,CCc1cccc2c(CC(=O)NCCn3ccc(C)n3)c(C)[nH]c12 [CBK282698],118.401
23,CSc1[nH]nc(N)c1-c1ccc([N+](=O)[O-])cc1 [CBK016751],113.546
24,O=C(Nc1ccc(S(=O)(=O)NCCc2ccccc2)cc1)c1ccncc1 [CBK268172],93.6626
25,CCN(CC)CCCCSc1ccc(O)cc1 [CBK261785C],100
26,CSCCCNC(=O)C1(c2ccccc2)CCCC1 [CBK149526],154.769

# From publication PMC12040169 (PLOS Biology, 2025)
